Laboratory results: PubChem BioAssay AID743454 (Peter MacCallum Cancer Centre, 2014)
In all, the deposit lists about 18,000 reagents; this is a random part of them. Over the whole deposit, 450 (2.5%) were called active. 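Single biological run; no consistent viability z cut-off exists, so the class columns, not z-scores, define the calls.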 Unmarked entries are inactive.

- Screen: 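Genes whose loss kills vorinostat-resistant colon cancer cells under vorinostat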 (primary screen)
- Cells: human HCT116-VR colon cancer cells, selected for vorinostat resistance
- Reagents: siRNA pool against human genes, 40 nM siRNA pool
- Duration: vorinostat for 24 h, read-out about 72 h after transfection
- Conditions: vorinostat at 2.5 µM final
- Read-out: 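Two measures, CellTiter-Fluor viability and luminescent caspase 3/7 activity, each as fold change against same-plate mock wells, mean of duplicates, then screen-wide robust z-score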
- Scale: viability robust z-score: higher = more viable cells than screen typical; caspase robust z-score: higher = more caspase 3/7 activity than screen typical
- Call rule: 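a knock-down is a hit when classed RV1 or RV2 for lowered viability, or CA1 or CA2 for caspase activation; those lethal without drug were dropped; hits were retested singly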

After knock-down of LEPROT, the record shows viability hit class no change; caspase hit class no change; viability robust z-score 0.72; caspase robust z-score -0.4.
ZNF124 showed viability hit class no change; caspase hit class no change; viability robust z-score -1.29; caspase robust z-score -0.74.
With knock-down of CA13 the results were viability hit class no change; caspase hit class no change; viability robust z-score -0.65; caspase robust z-score 1.15.
For WDR86 the deposit lists viability hit class no change; caspase hit class no change; viability robust z-score 1.4; caspase robust z-score -0.4.
Depletion of AQP1 gave: viability hit class no change; caspase hit class no change; viability robust z-score 0.34; caspase robust z-score 0.2.
Silencing of HLA-DOB came out at: viability hit class no change; caspase hit class no change; viability robust z-score -1.54; caspase robust z-score 1.62.
Against TLX2, the entry reads viability hit class no change; caspase hit class no change; viability robust z-score -2.56; caspase robust z-score 3.42.
USP54 gave viability hit class no change; caspase hit class no change; viability robust z-score 0.2; caspase robust z-score 0.13.
Silencing of PPP1R18 gave: viability hit class no change; caspase hit class no change; viability robust z-score 0.67; caspase robust z-score 0.63.
After knock-down of ADAM28, the screen gave viability hit class no change; caspase hit class no change; viability robust z-score 0.24; caspase robust z-score 0.13.
Depletion of CLASRP resulted in: viability hit class no change; caspase hit class no change; viability robust z-score -0.04; caspase robust z-score 2.13.
Depletion of LMOD3 came out at: viability hit class no change; caspase hit class no change; viability robust z-score -0.56; caspase robust z-score -0.79.
Knock-down of CEP19 gave: viability hit class no change; caspase hit class no change; viability robust z-score 0.3; caspase robust z-score -0.16.
Silencing of NOL9 came out at: viability hit class no change; caspase hit class no change; viability robust z-score -2.33; caspase robust z-score -0.22.
ADORA2B showed viability hit class no change; caspase hit class no change; viability robust z-score 1.26; caspase robust z-score -0.28.
With knock-down of DHX34 the results were viability hit class no change; caspase hit class no change; viability robust z-score 0.82; caspase robust z-score -0.03.
With knock-down of ZNF649 the results were viability hit class no change; caspase hit class no change; viability robust z-score -0.37; caspase robust z-score -0.5.
Knock-down of PMEPA1 came out at: viability hit class no change; caspase hit class no change; viability robust z-score -0.74; caspase robust z-score 3.31.
GNPTAB scored viability hit class no change; caspase hit class no change; viability robust z-score 0.24; caspase robust z-score -0.58.
Depletion of LDLRAP1 gave: viability hit class no change; caspase hit class no change; viability robust z-score 0.44; caspase robust z-score -0.48.
For MEFV, the entry reads viability hit class no change; caspase hit class no change; viability robust z-score 0.8; caspase robust z-score -0.54.

Records above whose gene name starts with P or p (2):
PPP1R18 | viability hit class: no change; caspase hit class: no change; viability robust z-score: 0.67; caspase robust z-score: 0.63
PMEPA1 | viability hit class: no change; caspase hit class: no change; viability robust z-score: -0.74; caspase robust z-score: 3.31
